Some of these results come from one statement about several compounds together. For at least one compound, name, drawing or mass did not settle the structure.
Test system: pancreatic and salivary amylase
Test: Lag phase of amylase reaction
Assay type: biochemical, human
Settings: purified pancreatic and salivary amylase; Cobas Fara analyzer
Procedure: Amylase assays using oligosaccharide substrates were automated using a Cobas Fara analyzer (Roche, Basel, Switzerland). Unless indicated, assay temperature was 37° C., and absorbance changes were measured at 405 nm every minute over a 20 minute period. Assay buffer was either 52.5 mmol/L 4-(2-hydroxyethyl)-1-piperazine-ethanesulfonic acid (HEPES) buffer, pH 7.15, 87 mmol/L sodium chloride, 12.6 mmol/L magnesium chloride, 0.075 mmol/L calcium chloride (HEPES buffer) or 50 mmol/L MES, pH 6.0, 350 mmol/L sodium chloride, 6 mmol/L calcium acetate, 900 mmol/L KSCN (MES buffer). Amylases were diluted into assay buffer containing 1 mg/mL rabbit albumin. Final reaction volumes were 200 μL and consisted of 3 solutions, R1, R2, and R3. […] Depending upon the assay, R2 and R3 contained either amylase or substrate. R1 and R2 solutions were mixed for 10 seconds prior to the addition of R3. […] Unless indicated, final concentrations of MABs were 10 mg/L. Reaction blanks were determined by measuring the absorbance of substrate or enzyme alone at 405 nm. […] Differences between the test samples and reagent blanks were determined. Activity of stock solutions of amylase was based on activity measured with a Hitachi 917 analyzer using a Roche kit (Cat. No 1876473) (Indianapolis, Ind.) which uses EtG7pNP as the substrate. […]

## CC1OC[C@H]2O[C@H](O[C@H]3[C@H](O)[C@@H](O)[C@@H](O[C@H]4[C@H](O)[C@@H](O)[C@@H](O[C@H]5[C@H](O)[C@@H](O)[C@@H](O[C@H]6[C@H](O)[C@@H](O)[C@@H](O[C@H]7[C@H](O)[C@@H](O)[C@@H](O[C@H]8[C@H](O)[C@@H](O)[C@@H](Oc9ccc([N+](=O)[O-])cc9)O[C@@H]8CO)O[C@@H]7CO)O[C@@H]6CO)O[C@@H]5CO)O[C@@H]4CO)O[C@@H]3CO)[C@H](O)[C@@H](O)[C@@H]2O1 (stereo partly drawn) [EtG7pNP, 4,6-O-ethylidene p-nitrophenyl-α-D-maltoheptaoside]
  Lag phase, time to reach maximal rates: 3 to 4 min

## O=[N+]([O-])c1ccc(OC2OC(CO)C(OC3OC(CO)C(OC4OC(CO)C(OC5OC(CO)C(OC6OC(CO)C(O)C(O)C6O)C(O)C5O)C(O)C4O)C(O)C3O)C(O)C2O)cc1 [Substrate G5pNP, p-nitrophenyl-α-D-maltopentaoside]
  Lag phase, time to reach maximal rates: 3 to 4 min
